# PubChem BioAssay AID1259405 | NCATS, 2018
# Screen: 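Knock-downs that lift recombinant protein yield in hamster ovary cells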 (primary screen)
# System: Chinese hamster CHO-K1 ovary cells with stable secreted eGFP expression
# Knock-down reagent: single siRNA against mouse genes, 0.8 pmol siRNA per well (2 µl of 400 nM stock)
# Timing: 3 days
# Measurement: 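Per-well intracellular GFP measured by laser scanning cytometry, plus viability from ATP luminescence, each relative to plate median of non-targeting control wells, in %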
# Direction: GFP, % of control: higher = more GFP per well, higher productivity; viability (ATP), % of control: higher = more viable cells (more ATP)
# Active means: 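a knock-down is called active if GFP reaches 120% or more of non-targeting control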
# This is one part, drawn at random, of about 50,000 reagents tested. About 4,000 of all reagents (8%) count as active. 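Mouse siRNA library applied to hamster cells; one well for each siRNA.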 The numbers tell different reagents against one gene apart.
Target gene,reagent no.,"GFP, % of control","viability (ATP), % of control",Call
Or52a24 (GeneID 259159),1,60,73.7,inactive
Or52a24 (GeneID 259159),2,70.3,77.4,inactive
Or52a24 (GeneID 259159),3,102,101,inactive
Cst5 (GeneID 58214),1,52.9,74.6,inactive
Cst5 (GeneID 58214),2,108,70.4,inactive
Cst5 (GeneID 58214),3,60.7,40,inactive
Rnf135 (GeneID 71956),1,103,105,inactive
Rnf135 (GeneID 71956),2,144,114,active
Rnf135 (GeneID 71956),3,88.7,138,inactive
Ide (GeneID 15925),1,111,82.8,inactive
Ide (GeneID 15925),2,62.2,46.1,inactive
Ide (GeneID 15925),3,74.8,53.3,inactive
Ttc36 (GeneID 192653),1,113,92.6,inactive
Ttc36 (GeneID 192653),2,83.6,73.6,inactive
Ttc36 (GeneID 192653),3,123,154,active
Arid1a (GeneID 93760),1,87.5,117,inactive
Arid1a (GeneID 93760),2,22.4,57.8,inactive
Arid1a (GeneID 93760),3,57.9,71.2,inactive
Hmgcs1 (GeneID 208715),1,73.8,86.1,inactive
Hmgcs1 (GeneID 208715),2,60.5,72.1,inactive
Hmgcs1 (GeneID 208715),3,51.2,66.1,inactive
Nme7 (GeneID 171567),1,73.3,62.1,inactive
Gm4884 (GeneID 233164),1,61.6,78.2,inactive
Gm4884 (GeneID 233164),2,90.5,78.1,inactive
Gm4884 (GeneID 233164),3,66.6,75.1,inactive
Or8b39 (GeneID 258415),1,137,60.5,active
Or8b39 (GeneID 258415),2,91.4,73.7,inactive
Or8b39 (GeneID 258415),3,54.7,59.6,inactive
Cep20 (GeneID 66086),1,115,101,inactive
Cep20 (GeneID 66086),2,52.9,64.1,inactive
Cep20 (GeneID 66086),3,128,104,active
Scin (GeneID 20259),1,60.3,63.6,inactive
Scin (GeneID 20259),2,44.3,44.9,inactive
Scin (GeneID 20259),3,76.5,66.7,inactive
Huwe1 (GeneID 59026),1,57.3,89.9,inactive
Huwe1 (GeneID 59026),2,72.1,56.5,inactive
Huwe1 (GeneID 59026),3,111,45.8,inactive
Ubp1 (GeneID 22221),1,63.4,63.1,inactive
Ubp1 (GeneID 22221),2,75.7,69.8,inactive
Ubp1 (GeneID 22221),3,63.6,97.5,inactive
Dbt (GeneID 13171),1,45.1,37.5,inactive
Dbt (GeneID 13171),2,43.7,61.2,inactive
Dbt (GeneID 13171),3,104,81.2,inactive
Tbc1d1 (GeneID 57915),1,109,75.8,inactive
Tbc1d1 (GeneID 57915),2,68.4,69,inactive
Tbc1d1 (GeneID 57915),3,57.8,70.6,inactive
Rab3c (GeneID 67295),1,49.2,58.9,inactive
Rab3c (GeneID 67295),2,65.1,59.5,inactive
Wrnip1 (GeneID 78903),1,108,123,inactive
Wrnip1 (GeneID 78903),2,105,68.9,inactive
Wrnip1 (GeneID 78903),3,55.4,63.6,inactive
Acat3 (GeneID 224530),1,68.2,36.2,inactive
Acat3 (GeneID 224530),2,72.5,66.6,inactive
Acat3 (GeneID 224530),3,106,76.7,inactive
Bicd2 (GeneID 76895),1,22.4,19.5,inactive
Bicd2 (GeneID 76895),2,64.3,92.5,inactive
Bicd2 (GeneID 76895),3,83.2,93.6,inactive
Ndufa9 (GeneID 66108),1,72,74.4,inactive
Ndufa9 (GeneID 66108),2,63.6,74.1,inactive
Ndufa9 (GeneID 66108),3,61.5,51.6,inactive
Zbtb26 (GeneID 320633),1,92.9,100,inactive
Zbtb26 (GeneID 320633),2,87.9,73.8,inactive
Nkd2 (GeneID 72293),1,69.1,66.1,inactive
Nkd2 (GeneID 72293),2,15.5,27.5,inactive
Nkd2 (GeneID 72293),3,107,86.2,inactive
Swt1 (GeneID 66875),1,69.1,80.4,inactive
Swt1 (GeneID 66875),2,53.4,84.7,inactive
Swt1 (GeneID 66875),3,77.7,78.1,inactive
Tbx20 (GeneID 57246),1,69.4,68.8,inactive
Tbx20 (GeneID 57246),2,75.3,68.5,inactive
Tbx20 (GeneID 57246),3,84.7,62.4,inactive
Adgra2 (GeneID 78560),1,78,68.9,inactive
Adgra2 (GeneID 78560),2,94.8,88,inactive
Adgra2 (GeneID 78560),3,140,75.7,active
Pctp (GeneID 18559),1,114,70.2,inactive
Pctp (GeneID 18559),2,86.3,65.5,inactive
Pctp (GeneID 18559),3,110,78.8,inactive
Jag1 (GeneID 16449),1,92.7,91.8,inactive
Jag1 (GeneID 16449),2,88.8,64.6,inactive
Jag1 (GeneID 16449),3,89.4,69.7,inactive
Ppp1r1c (GeneID 75276),1,139,82.1,active
Ppp1r1c (GeneID 75276),2,64.5,34.3,inactive
Ppp1r1c (GeneID 75276),3,93,68.3,inactive
Asic1 (GeneID 11419),1,116,52.9,inactive
Asic1 (GeneID 11419),2,66.7,79.9,inactive
Asic1 (GeneID 11419),3,78.4,74.6,inactive
Abcf1 (GeneID 224742),1,41,33.1,inactive
Abcf1 (GeneID 224742),2,79.4,63.4,inactive
Abcf1 (GeneID 224742),3,86.9,84.7,inactive
Metrnl (GeneID 210029),1,76,94.9,inactive
Metrnl (GeneID 210029),2,61.6,81.2,inactive
Metrnl (GeneID 210029),3,187,158,active
Echdc2 (GeneID 52430),1,136,101,active
Echdc2 (GeneID 52430),2,59.2,56.6,inactive
Echdc2 (GeneID 52430),3,69,48.6,inactive
Zfp146 (GeneID 26465),1,77.9,111,inactive
Zfp146 (GeneID 26465),2,41.7,51,inactive
Zfp146 (GeneID 26465),3,28.9,132,inactive
Cacna1s (GeneID 12292),1,73.1,78.8,inactive
Cacna1s (GeneID 12292),2,29.4,30.9,inactive
Cacna1s (GeneID 12292),3,97.6,74.1,inactive
Calcr (GeneID 12311),1,57.7,41.5,inactive
Calcr (GeneID 12311),2,84.9,88.1,inactive
Calcr (GeneID 12311),3,95.6,68.8,inactive
Kat6b (GeneID 54169),1,76.7,87.1,inactive
Kat6b (GeneID 54169),2,54.7,60.8,inactive
Kat6b (GeneID 54169),3,122,57.3,active

Active calls, of those listed so far:
Target gene,reagent no.,"GFP, % of control","viability (ATP), % of control",Call
Rnf135 (GeneID 71956),2,144,114,active
Ttc36 (GeneID 192653),3,123,154,active
Or8b39 (GeneID 258415),1,137,60.5,active
Cep20 (GeneID 66086),3,128,104,active
Adgra2 (GeneID 78560),3,140,75.7,active
Ppp1r1c (GeneID 75276),1,139,82.1,active
Metrnl (GeneID 210029),3,187,158,active
Echdc2 (GeneID 52430),1,136,101,active
Kat6b (GeneID 54169),3,122,57.3,active
